According to patent US5372944A, “Method for conversion of halogenated hydrocarbons to halohydrins” (The Dow Chemical Company, priority 1993, dated 1994):

Test system: double mutants lacking both ADH and halohydrin dehalogenase activity
Assay: Whole cell conversion of DCP, DCB and TCP by double mutants: kinetics, selectivity, enantioselectivity
Type: cell-based, Rhodococcus species
Conditions: for preferential conversion of one enantiomer: ADH negative mutants of TDTM-003 or double mutants
Procedure: To evaluate kinetics and selectivity of various mutants with respect to conversion of the target halocarbons, 1,2-dichloropropane (DCP), 1,2-dichloro-butane (DCB) and 1,2,3-trichloropropane (TCP) cultures were first inoculated from slants into 25 mL nutrient media in a 125 mL flask and grown overnight. Five mL were inoculated into 50 mL of MM1X4P containing 5 g/L disodium succinate in a 250 mL flask. Following 4 hours of growth and again at 8 hours, 10 μl of 1-chlorobutane was added for induction of the dehalogenase. Following 24 hours growth, cells were harvested by centrifugation and resuspended into 50 mL of fresh sterile MM1X4P and transferred to a sterile 250 mL shake flask equipped with a bulb feeder as described by Gibson, et al., supra. DCP, DCB, and TCP were added to bulb feeders and reaction progress monitored by gas chromatography (GC). Throughout the protocol, volumes were modified as needed to provide higher concentrations of cells and/or to provide identical batches of induced cells for comparative studies.
For gas chromatography (GC) analysis of halogenated metabolites, cultures were centrifuged briefly to remove cells, saturated with sodium sulfate, and an equivalent volume of methylene chloride added. The suspension was vortexed vigorously, centrifuged to break the emulsion and the methylene chloride phase removed.
Analysis of all halocarbon substrates and products from culture broths was done by GC using a Hewlett Packard 5710 equipped with a 7671A Autoinjector with the following protocol:
Analysis for optical activity of microbially produced 2,3-dichloro-1-propanol was determined independently using two methods. Polarimetry was performed using a Horiba SEPA 200 polarimeter, and optical rotations were compared to a standard curve to provide an estimate of enantiomeric excess. Gas chromatographic separation of 2,3-dichloro-1-propanol enantiomers was done using a 5 percent phenyl silicone/95 percent methyl silicone column (DB-5 column, J&J scientific) following formation of diesteromeric monoesters with S(+)-2-phenyl butyric acid. Enantiomeric composition of DCP, DCB, and respective halohydrins can also be monitored using a derivatized cyclodexdrin gas chromatography column (CHIRALDEX™ type B-TA Column, Advanced Separation Technologies, Inc.). Enantiomeric excess was determined by a comparison of peak areas.
The double mutants were evaluated for conversion of DCP, DCB, and TCP following growth on succinate in the presence of 1-chlorobutane as an inducer of the dehalogenase. There was no substantial difference with respect to overall rate or product selectivity by the double mutants. […] The in vivo rates of conversion for DCP vs. DCB vs. TCP were 0.30, 1.29, and 1.06 mg product/g dry cells/hr, respectively. […] In contrast, DCP is preferentially dehalogenated at the secondary carbon with approximately a 3 to 1 selectivity.
DCP and DCB are racemic mixtures, whereas TCP is an achiral meso compound. […] Optical activity was not expected nor observed in the halohydrin products from 1,2-DCP and 1,2-DCB. […] Furthermore, when ADH negative mutants were induced with 1-chlorobutane and then presented with TCP, 2,3-dichloro-1-propanol accumulates transiently but then completely disappears as glycidol begins to accumulate. […] The observation was confirmed by isolating the 2,3-dichloro-1-propanol generated from TCP by a double mutant and examining optical activity by polarimetry and GC.

[1] = 2,3-dichloro-1-propanol generated from TCP by a double mutant

Row | SMILES | Enantiomeric excess by GC analysis of diastereomers [1] [%] | Enantiomeric excess by polarimetry [1] [%] | preferential conversion of one enantiomer | share dehalogenated at the secondary carbon (double mutants) [%] | selectivity of dehalogenation site (primary vs secondary carbon) (double mutants)
1 | OCC(Cl)CCl (stereo not shown) [2,3-dichloro-1-propanol] | 41 | 31 |  |  | 
2 | CCC(Cl)CCl (stereo not shown) [1,2-dichlorobutane] |  |  | no indication of preferential conversion of one enantiomer over the other | 3 | 
3 | ClCC(Cl)CCl [1,2,3-trichloropropane] |  |  |  |  | exclusively dehalogenated at the primary carbon
4 | CC(Cl)CCl (stereo not shown) [1,2-dichloropropane] |  |  | no indication of preferential conversion of one enantiomer over the other |  | 3 to 1
